These results are taken from paper PMC9573979.

Amino acid sequences for entries named in this document (tags omitted).
UniProt Q6PDG5: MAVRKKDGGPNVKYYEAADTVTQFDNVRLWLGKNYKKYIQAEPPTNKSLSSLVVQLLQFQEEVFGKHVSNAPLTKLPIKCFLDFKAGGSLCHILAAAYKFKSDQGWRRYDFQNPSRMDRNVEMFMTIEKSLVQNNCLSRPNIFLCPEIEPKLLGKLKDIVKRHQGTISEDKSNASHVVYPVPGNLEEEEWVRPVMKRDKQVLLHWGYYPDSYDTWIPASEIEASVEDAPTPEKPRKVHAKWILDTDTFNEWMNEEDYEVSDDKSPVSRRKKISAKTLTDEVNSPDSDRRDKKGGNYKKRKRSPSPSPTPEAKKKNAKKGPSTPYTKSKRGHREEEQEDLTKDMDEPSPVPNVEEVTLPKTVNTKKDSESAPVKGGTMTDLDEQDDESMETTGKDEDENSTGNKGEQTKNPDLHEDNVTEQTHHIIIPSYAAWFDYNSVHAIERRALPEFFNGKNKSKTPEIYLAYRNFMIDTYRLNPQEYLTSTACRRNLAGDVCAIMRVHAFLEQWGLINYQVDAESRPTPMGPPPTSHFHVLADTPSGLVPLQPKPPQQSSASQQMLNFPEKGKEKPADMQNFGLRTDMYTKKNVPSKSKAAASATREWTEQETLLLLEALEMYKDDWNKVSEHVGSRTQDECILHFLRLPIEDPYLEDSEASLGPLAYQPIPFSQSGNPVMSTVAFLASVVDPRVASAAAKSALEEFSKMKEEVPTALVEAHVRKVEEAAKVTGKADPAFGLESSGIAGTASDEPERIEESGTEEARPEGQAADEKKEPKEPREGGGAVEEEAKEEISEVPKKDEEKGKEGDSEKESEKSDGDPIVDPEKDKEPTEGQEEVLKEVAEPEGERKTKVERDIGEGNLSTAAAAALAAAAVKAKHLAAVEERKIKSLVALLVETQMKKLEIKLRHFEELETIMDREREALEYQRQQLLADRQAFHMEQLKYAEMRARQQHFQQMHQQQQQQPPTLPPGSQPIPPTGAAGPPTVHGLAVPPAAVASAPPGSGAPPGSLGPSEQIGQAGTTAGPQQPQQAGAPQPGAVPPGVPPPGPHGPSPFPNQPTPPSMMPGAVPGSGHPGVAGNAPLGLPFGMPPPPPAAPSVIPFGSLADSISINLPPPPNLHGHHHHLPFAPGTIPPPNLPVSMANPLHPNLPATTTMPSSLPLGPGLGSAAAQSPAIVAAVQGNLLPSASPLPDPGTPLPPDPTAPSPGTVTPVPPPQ
UniProt P97496: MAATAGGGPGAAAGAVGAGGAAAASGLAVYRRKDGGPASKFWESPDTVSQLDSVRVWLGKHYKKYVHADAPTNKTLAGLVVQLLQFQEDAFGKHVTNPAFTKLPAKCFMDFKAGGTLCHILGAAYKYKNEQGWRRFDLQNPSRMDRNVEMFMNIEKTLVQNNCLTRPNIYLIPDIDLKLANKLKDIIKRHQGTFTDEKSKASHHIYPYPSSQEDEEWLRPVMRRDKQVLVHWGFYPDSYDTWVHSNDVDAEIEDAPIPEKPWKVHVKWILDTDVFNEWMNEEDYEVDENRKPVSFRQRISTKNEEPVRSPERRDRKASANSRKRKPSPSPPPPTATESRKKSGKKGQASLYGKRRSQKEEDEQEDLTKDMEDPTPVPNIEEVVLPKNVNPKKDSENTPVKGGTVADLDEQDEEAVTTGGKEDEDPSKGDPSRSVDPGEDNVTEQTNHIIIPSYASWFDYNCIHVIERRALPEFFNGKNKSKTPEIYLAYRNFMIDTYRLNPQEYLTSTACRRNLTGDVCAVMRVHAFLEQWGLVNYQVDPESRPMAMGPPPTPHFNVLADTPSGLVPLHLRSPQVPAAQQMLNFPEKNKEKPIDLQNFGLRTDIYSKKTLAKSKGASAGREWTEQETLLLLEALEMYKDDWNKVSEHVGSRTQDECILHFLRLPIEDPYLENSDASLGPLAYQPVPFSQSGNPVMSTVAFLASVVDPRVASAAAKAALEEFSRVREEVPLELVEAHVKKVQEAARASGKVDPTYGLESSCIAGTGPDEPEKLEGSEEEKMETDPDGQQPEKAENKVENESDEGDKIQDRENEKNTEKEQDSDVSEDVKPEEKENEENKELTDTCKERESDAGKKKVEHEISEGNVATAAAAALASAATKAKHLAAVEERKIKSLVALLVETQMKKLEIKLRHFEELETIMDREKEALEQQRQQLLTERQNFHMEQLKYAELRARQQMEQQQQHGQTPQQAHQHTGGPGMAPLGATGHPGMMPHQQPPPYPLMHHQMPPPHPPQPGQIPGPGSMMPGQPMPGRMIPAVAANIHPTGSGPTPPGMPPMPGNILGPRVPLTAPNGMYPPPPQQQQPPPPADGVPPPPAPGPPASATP

No constants are given. Whether binding was seen depends on the method and setting. In cells and extracts the contact can be indirect. Here binding means that the protein was enriched with, or labelled near, the bait; the list need not be complete.

The target of assay [1] is BAF170 (mouse (endogenous in telencephalic tissue)) (UniProt Q6PDG5). Kind of assay: affinity purification with mass spectrometry; coIP with antibodies against BAF155 and BAF170 from lysates of E13.5 or E17.5 wild-type mouse telencephalic tissue and of cultured NS-5 neural stem cells, followed by mass spectrometry; IgG coIP/MS as control.
Assay [2] addresses BAF155 (mouse (endogenous in telencephalic tissue)) (UniProt P97496). Described as above.

B1: LHX2 (protein, UniProt Q9Z0S2 1-406)
chain: MLFHSLSGPEVHGVIDEMDRRAKSEAPAISSAIDRGDTETTMPSISSDRAALCAGCGGKISDRYYLLAVDKQWHMRCLKCCECKLNLESELTCFSKDGSIYCKEDYYRRFSVQRCARCHLGISASEMVMRARDLVYHLNCFTCTTCNKMLTTGDHFGMKDSLVYCRLHFEALLQGEYPAHFNHADVAAAAAAAAAAKSAGLGSAGANPLGLPYYNGVGTVQKGRPRKRKSPGPGADLAAYNAALSCNENDAEHLDRDQPYPSSQKTKRMRTSFKHHQLRTMKSYFAINHNPDAKDLKQLAQKTGLTKRVLQVWFQNARAKFRRNLLRQENTGVDKTSDATLQTGTPSGPASELSNASLSPSSTPTTLTDLTSPTLPTVTSVLTSVPGNLEGHEPHSPSQTTLTNLF
As for B1, the binding result in assay [1] and in assay [2] was “binds” each time.
